According to paper PMC12635215:
No constants are given. Whether binding was seen depends on the method and setting. In cells and extracts the contact can be indirect. Some binding calls cover weakened binding; strength is not graded here.

Chains of the proteins cited; added tags and fusions are not shown.
UniProt O43303: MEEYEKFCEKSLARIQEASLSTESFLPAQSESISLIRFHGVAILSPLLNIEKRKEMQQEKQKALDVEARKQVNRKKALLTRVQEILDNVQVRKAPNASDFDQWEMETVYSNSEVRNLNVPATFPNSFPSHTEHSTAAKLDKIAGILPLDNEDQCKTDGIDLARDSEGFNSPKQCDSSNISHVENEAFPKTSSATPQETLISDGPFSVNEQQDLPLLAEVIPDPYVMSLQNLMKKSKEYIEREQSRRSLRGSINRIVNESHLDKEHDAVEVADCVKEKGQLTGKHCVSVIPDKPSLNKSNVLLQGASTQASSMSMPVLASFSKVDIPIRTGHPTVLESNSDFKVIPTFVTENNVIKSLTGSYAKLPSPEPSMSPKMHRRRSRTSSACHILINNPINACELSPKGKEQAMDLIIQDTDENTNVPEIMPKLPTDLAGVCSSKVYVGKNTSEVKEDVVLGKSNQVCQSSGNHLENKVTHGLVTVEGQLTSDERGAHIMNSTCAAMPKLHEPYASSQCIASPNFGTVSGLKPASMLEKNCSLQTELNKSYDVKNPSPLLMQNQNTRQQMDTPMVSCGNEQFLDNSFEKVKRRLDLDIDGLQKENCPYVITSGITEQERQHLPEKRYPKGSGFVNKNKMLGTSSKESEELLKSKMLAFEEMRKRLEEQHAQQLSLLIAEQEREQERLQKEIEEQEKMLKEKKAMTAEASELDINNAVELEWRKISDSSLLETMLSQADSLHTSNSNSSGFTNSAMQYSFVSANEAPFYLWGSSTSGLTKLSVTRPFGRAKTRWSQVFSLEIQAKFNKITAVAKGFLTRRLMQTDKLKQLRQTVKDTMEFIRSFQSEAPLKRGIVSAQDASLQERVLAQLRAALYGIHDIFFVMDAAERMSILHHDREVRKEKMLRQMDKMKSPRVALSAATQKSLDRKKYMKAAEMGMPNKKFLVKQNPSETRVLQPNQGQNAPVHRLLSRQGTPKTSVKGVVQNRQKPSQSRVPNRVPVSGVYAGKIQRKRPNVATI
UniProt Q8TD16: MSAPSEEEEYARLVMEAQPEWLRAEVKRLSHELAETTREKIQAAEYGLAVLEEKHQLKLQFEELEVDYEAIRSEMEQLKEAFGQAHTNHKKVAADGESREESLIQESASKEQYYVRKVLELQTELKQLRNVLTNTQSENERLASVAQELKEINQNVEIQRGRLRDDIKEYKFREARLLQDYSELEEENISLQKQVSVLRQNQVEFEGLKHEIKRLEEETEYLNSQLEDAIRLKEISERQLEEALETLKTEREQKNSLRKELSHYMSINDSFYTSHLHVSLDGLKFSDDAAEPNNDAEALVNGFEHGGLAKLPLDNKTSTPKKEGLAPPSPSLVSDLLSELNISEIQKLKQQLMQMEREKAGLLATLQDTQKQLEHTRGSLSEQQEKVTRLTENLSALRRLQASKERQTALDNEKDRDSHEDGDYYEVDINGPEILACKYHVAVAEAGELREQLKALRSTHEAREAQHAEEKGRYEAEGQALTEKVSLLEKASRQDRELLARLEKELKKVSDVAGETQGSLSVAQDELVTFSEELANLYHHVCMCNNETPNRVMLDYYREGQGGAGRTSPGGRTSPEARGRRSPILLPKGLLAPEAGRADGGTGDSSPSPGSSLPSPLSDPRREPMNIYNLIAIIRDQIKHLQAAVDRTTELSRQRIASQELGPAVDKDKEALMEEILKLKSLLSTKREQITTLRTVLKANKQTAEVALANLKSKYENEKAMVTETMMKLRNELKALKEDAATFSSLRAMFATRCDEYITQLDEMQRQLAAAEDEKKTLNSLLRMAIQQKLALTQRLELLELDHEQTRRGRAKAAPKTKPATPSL

Target: centriolar coiled-coil protein 110 (CP110), endogenous (human (endogenous in RPE-1)) (UniProt O43303)
Assay: co-IP; endogenous proteins; wild-type RPE-1 cells in normal serum medium, lysed in TBSN buffer; anti-BICD2 or anti-CP110 antibody at 4 °C overnight, then Protein A/G Sepharose beads 4 h; immunoblotting

bicaudal D cargo adaptor 2 (BICD2), endogenous (from UniProt Q8TD16 1-824)
binding: binds
